Experimental data from article PMC3701669.

Amino acid sequences for entries named in this document (tags omitted). A change or cut given only in a name is not applied to a line headed by its entry. Chains listed by the source or under a name are the forms on record and can include a tag or linker.
UniProt O35381: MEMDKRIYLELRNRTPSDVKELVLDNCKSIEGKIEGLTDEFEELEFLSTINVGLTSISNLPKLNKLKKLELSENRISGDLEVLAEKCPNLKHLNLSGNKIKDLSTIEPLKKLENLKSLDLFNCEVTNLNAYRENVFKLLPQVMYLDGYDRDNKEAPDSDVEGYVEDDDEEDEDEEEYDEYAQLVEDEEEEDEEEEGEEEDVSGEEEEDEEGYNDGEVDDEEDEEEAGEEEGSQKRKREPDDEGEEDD
template-activating factor-1β (TAF-1β), endogenous mouse (Q9EQU5-2, form named): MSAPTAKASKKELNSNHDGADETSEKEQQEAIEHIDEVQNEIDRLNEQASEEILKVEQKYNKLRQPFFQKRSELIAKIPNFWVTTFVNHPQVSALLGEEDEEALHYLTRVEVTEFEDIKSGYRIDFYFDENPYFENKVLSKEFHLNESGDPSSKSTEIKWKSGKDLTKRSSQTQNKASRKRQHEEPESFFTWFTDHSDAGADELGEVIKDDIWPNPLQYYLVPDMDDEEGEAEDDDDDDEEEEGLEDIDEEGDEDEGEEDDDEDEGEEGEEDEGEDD

Molecular target: T1, GST-human LHX3a C-terminus (residues 225–397) fusion protein (human) (UniProt Q9UBR4)
T1 sequence: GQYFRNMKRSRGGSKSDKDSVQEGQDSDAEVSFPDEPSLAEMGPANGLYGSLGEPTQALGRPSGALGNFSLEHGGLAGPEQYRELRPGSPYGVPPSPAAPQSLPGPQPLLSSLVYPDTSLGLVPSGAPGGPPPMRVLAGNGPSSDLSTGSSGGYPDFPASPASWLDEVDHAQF
Test: affinity purification with mass spectrometry; GST-LHX3 C-terminus on glutathione beads; 500 µg LβT2 or mouse pituitary extract precleared with GST beads (4°C, 2 h); 20 mM HEPES pH 7.9, 100 mM NaCl, 1 mM EDTA, 10% glycerol, 0.5% NP-40, 1 mM DTT, 50 µg/mL ethidium bromide; elution with 800 mM NaCl; SDS-PAGE, colloidal Coomassie, bands unique against GST alone identified by mass spectrometry; only the target purified

| Substance | binding |
| --- | --- |
| leucine rich acidic nuclear protein (LANP), endogenous mouse (from UniProt O35381 1-247) | binds |
| template-activating factor-1β (TAF-1β), endogenous mouse (from UniProt Q9EQU5-2 1-277) | binds |

No constants are given. Whether binding was seen depends on the method and setting. In cells and extracts the contact can be indirect. These calls come from enrichment with a bait or labelling near it, and not all partners need be listed. Where a sequence is shown, tags or fusion partners need not be part of it.
